Laboratory results as given in patent US9249466B2, “Methods and compositions for treating cancer” (Agency for Science, Technology and Research, priority 2010, dated 2016).
Results are given in words; binding and its absence hold for the method and conditions named. Binding seen in cells or lysates may run through a third protein. Some binding calls cover weakened binding; strength is not graded here. Where a sequence is shown, tags or fusion partners need not be part of it.

By UniProt entry, the sequences of proteins in these tests, tags left out. Residues count along the entry.
UniProt P67775: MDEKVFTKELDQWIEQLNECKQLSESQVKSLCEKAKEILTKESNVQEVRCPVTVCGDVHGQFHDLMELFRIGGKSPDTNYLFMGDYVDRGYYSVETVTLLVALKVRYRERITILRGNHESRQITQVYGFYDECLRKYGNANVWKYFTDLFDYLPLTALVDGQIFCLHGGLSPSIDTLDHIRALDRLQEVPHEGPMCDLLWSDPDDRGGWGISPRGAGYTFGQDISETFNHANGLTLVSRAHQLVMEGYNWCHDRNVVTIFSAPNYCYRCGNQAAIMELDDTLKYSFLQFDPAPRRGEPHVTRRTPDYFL
UniProt P30153, residues 2-589: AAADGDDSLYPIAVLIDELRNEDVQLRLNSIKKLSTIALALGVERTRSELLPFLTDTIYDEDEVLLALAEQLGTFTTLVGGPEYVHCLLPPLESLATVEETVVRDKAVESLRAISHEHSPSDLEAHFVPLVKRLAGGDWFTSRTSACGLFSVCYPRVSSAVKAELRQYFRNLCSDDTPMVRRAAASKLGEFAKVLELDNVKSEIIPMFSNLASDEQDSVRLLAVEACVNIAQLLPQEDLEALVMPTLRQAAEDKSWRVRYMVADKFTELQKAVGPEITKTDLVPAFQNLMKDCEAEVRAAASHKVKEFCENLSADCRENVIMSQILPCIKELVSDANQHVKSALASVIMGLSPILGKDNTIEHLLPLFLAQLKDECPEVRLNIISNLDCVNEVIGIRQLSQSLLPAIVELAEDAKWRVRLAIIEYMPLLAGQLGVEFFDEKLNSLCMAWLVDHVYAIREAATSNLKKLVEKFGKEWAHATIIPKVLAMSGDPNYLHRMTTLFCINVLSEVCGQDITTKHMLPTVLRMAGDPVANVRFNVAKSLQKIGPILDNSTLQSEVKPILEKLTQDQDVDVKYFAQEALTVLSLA

Experiments:
[1] = target: T1, endogenous PDK1 (human) (UniProt O15530); assay: conclusion from co-immunoprecipitation and membrane fractionation in DLD1-PPP2R2B cells
T1 sequence (looked up): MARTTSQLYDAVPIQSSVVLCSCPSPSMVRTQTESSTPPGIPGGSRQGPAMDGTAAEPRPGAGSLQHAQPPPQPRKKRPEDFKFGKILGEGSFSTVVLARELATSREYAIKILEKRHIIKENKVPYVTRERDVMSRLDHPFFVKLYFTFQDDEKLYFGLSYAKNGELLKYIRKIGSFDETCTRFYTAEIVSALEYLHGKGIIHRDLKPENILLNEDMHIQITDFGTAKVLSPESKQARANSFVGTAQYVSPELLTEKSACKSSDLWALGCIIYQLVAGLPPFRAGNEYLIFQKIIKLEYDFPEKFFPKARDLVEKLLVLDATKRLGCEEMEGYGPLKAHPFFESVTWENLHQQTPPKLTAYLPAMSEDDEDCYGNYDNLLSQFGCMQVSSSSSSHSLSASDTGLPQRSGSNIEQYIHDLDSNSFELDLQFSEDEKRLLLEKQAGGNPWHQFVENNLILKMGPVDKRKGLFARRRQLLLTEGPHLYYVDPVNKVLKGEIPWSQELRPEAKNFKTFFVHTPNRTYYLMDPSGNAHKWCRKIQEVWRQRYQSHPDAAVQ

[2] = target: T2, PDK1-HA (ectopic PDK1) (human) (UniProt O15530); assay: reciprocal co-immunoprecipitation (anti-HA, anti-Myc tag), co-transfected 293T cells
T2 sequence (looked up): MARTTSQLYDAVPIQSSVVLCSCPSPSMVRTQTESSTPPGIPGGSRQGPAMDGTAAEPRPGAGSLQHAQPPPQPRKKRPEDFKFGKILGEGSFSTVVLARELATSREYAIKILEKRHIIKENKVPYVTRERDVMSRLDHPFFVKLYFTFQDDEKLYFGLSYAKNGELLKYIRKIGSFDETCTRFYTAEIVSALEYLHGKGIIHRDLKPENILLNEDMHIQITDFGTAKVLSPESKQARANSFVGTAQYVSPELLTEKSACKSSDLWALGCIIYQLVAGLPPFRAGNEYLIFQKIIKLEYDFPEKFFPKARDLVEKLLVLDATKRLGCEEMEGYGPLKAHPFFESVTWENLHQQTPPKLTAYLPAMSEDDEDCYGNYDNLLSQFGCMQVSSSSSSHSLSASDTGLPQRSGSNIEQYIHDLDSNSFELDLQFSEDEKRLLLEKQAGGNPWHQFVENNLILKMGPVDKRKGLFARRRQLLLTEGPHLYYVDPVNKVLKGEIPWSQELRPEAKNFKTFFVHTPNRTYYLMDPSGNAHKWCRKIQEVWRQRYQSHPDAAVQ

[3] = target: PP2A catalytic C subunit (human) (UniProt P67775); assay: co-immunoprecipitation with anti-Myc tag antibody, DLD1-PPP2R2B cells treated with Dox
[4] = target: PP2A scaffolding A subunit (human) (UniProt P30153); assay: as above
[5] = target: T1, endogenous PDK1 (human); assay: co-immunoprecipitation (anti-PDK1, anti-Myc tag), DLD1-PPP2R2B cells treated with Dox
[6] = target: T2, PDK1-HA (ectopic PDK1) (human); assay: co-immunoprecipitation, 293T cells transfected with PPP2R2B-Myc and PDK1-HA (FIG. 6A)
[7] = target: T1, endogenous PDK1 (human); assay: co-immunoprecipitation, DLD1-PPP2R2B cells (FIG. 6B)

Measured: binding

B1: Myc-tagged PPP2R2B (PPP2R2B-Myc) (protein, human, UniProt Q00005 1-443, looked up, not shown: small tags and cut ends)
chain: MEEDIDTRKINNSFLRDHSYATEADIISTVEFNHTGELLATGDKGGRVVIFQREQESKNQVHRRGEYNVYSTFQSHEPEFDYLKSLEIEEKINKIRWLPQQNAAYFLLSTNDKTVKLWKVSERDKRPEGYNLKDEEGRLRDPATITTLRVPVLRPMDLMVEATPRRVFANAHTYHINSISVNSDYETYMSADDLRINLWNFEITNQSFNIVDIKPANMEELTEVITAAEFHPHHCNTFVYSSSKGTIRLCDMRASALCDRHTKFFEEPEDPSNRSFFSEIISSISDVKFSHSGRYIMTRDYLTVKVWDLNMENRPIETYQVHDYLRSKLCSLYENDCIFDKFECVWNGSDSVIMTGSYNNFFRMFDRNTKRDVTLEASRENSKPRAILKPRKVCVGGKRRKDEISVDSLDFSKKILHTAWHPSENIIAVAATNNLYIFQDKVN
binds: all assays above
